Source: patent US12692310B2, “ASIC1 channel antagonist antibody” (ShanghaiTech University, priority 2019, dated 2026)
These are yes or no findings as the source states them, for the method shown. For part of these data: Binding calls can cover weak binding; strength is not graded here.

What was measured:
[1] = biological target: truncated hASIC1a (amino acids 13-464) (human); assay: ELISA, biotinylated ΔhASIC1a nanodiscs on avidin, empty nanodiscs as negative control
[2] = biological target: truncated hASIC1a (amino acids 13-464) (human); assay: ELISA, biotinylated nanodiscs captured on avidin-coated wells, one antibody concentration, OD405
[3] = biological target: truncated hASIC1a (amino acids 13-464) (human); assay: Octet, scFv format, ΔhASIC1a nanodiscs
[4] = biological target: hASIC1a F352A (human); assay: flow cytometry, CHO-K1 cells transiently transfected with the mutant labelled hASIC1a F352A (CHOK1-PHE352), ASC06-IgG1 and labelled second antibody

binding [1]	binding [2]	binding [3]	binding [4]	Binder
binds	binds			ASC01 (scFv, V domains shown, also called ASC01 scFv; ASC01 (scFv format)) VH: QVQLVETGPRLVKPSQTLSLTCTVSGGSINSGGYYWGWIRQHSGKGLEWIGYIYPRGSSYYNPSLRSRVTISADTSRNNFSLKLTSVTAADTAVYYCARVGYTGAFDIWGQGTLVTVSS VL: QAVLTQPSSVSAAPGQKVTISCSGGNSNIGNNYVSWYQQLPGTAPKLLIYDNNKRPSGIPDRFSGSKSGTAATLGITGLQTGDEADYYCGTWDSSLSAGVFGEGTQLTVLG
binds	binds			ASC02 (scFv, V domains shown, also called ASC02 scFv; ASC02 (scFv format)) VH: QVQLVQSGAEVKKPGASMKVSCTTSGYTVTGYYIHWLRQAPGQGFEWMGWINPNLGVTNYAQKFQGRVSMTRDPSIKTAYLELSGLRSDDTAMYYCARASTGGIFYDYWGQGTLVTVSS VL: NFMLTQPHSMSESPGKTVTISCTRSSGNIASNYVQWYQQRPGSSPTTVIYDDNQRPSGVPDRFSGSIDSISNSASLTISGLKTEDEADYYCQSYDSSSVIFGGGTKLTVLG
binds	binds			ASC03 (scFv, V domains shown, also called ASC03 scFv; ASC03 (scFv format)) VH: QVQLVESGAEVKKPGSSVKVSCKASGGNFRKYSISWVRQAPGQGLEWMGWISAYNGNTNYAQKLQGRVTMTTDTSTSTAYMELRSLRSDDTAVYYCARDFDPYYDAFDIWGQGTTVTVSS VL: QSALTQPASVSGSPGQSITISCTGTSSDVGAYNYVSWYQQHPGKAPKLMIYDVSNRLSGVSNRFSGSKSGNRASLTISGLQAEDEADYYCSSYRSGNSLAFGGGTKLTVLG
binds	binds	binds		ASC04 (scFv, V domains shown, also called ASC04 scFv; ASC04 (scFv format)) VH: QVQLVQSGAEVKKPGSSVKVSCKASGGTFSTYAINWVRQAPGQGLEWMGWMNPNSGNTGYAQKFQGRVTMTRNTSISTAYMELSSLRSEDTAVYYCARYSYGMDVWGQGTTVTVSS VL: QAVLTQPSSLSASPGASVSLTCTLRSGINVGAYRIYWYQQKPGSPPQFLLRYKSDSDKQQGSGVPSRFSGSRDASANAGILLISGLRSEDEADYYCAIWHSSAWVFGGGTKLTVLG
binds	binds			ASC05 (scFv, V domains shown, also called ASC05 scFv; ASC05 (scFv format)) VH: QVQLVESGAEVKKPGASVRVSCKASGYSFTNYYMHWVRQAPGQGLEWMGIISPSGRSTSFAQKFQGRVTMTRDTSTSTVYMHLSSLRSDDTAVYYCARGAWSTDAFDIWGQGTTVTVSS VL: QSALTQPASVSGSPGQSITISCTGTSSDVGSYNLVSWYQQHPGKAPKLMIYEGSKRPSGVSNRFSGSKSGNTASLTISGLQAEDEAEYHCSSFTGKGYVFGTGTKLTVLG
binds	binds	binds		ASC06 (scFv, V domains shown) VH: QVQLQQSGGGLVQPGGSLRLSCAASGFTFSSYAMSWVRQAPGKGLEWVSAISGSGGSTYYADSVKGRFTISRDNSKNTLYLQMNSLRAEDTAVYYCAKDSFYGYSKGDWGQGTLVTVSS VL: QSALTQPASVSGSPGQSITISCTGTSSDVGAYNYVSWYQQQPGKAPKLMIYGVSNRPSGVSNRFSGSKSGNAASLTISGLQAEDEADYYCSSYTSSSTYVFGTGTKLTVLG
			no binding	ASC06-IgG1 (antibody, V domains shown, also called full length (ASC06-IgG1); ASC06-lgG1) VH: QVQLQQSGGGLVQPGGSLRLSCAASGFTFSSYAMSWVRQAPGKGLEWVSAISGSGGSTYYADSVKGRFTISRDNSKNTLYLQMNSLRAEDTAVYYCAKDSFYGYSKGDWGQGTLVTVSS VL: QSALTQPASVSGSPGQSITISCTGTSSDVGAYNYVSWYQQQPGKAPKLMIYGVSNRPSGVSNRFSGSKSGNAASLTISGLQAEDEADYYCSSYTSSSTYVFGTGTKLTVLG
